{"sequences": {"note": "Sequences of proteins named here, by UniProt entry; tags and fusion partners are left off.", "UniProt Q9UIV1": "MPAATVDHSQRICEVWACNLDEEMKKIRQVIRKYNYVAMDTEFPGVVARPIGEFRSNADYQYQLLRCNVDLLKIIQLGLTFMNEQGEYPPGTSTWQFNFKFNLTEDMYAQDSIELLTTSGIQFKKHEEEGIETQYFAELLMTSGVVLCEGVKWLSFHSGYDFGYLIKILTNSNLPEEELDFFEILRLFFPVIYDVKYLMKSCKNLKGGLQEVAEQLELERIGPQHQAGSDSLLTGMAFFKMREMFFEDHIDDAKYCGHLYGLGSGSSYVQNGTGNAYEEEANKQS"}, "source": "paper PMC4150769", "key": {"ZFP36L2 (human)": {"biological_target": "T1, ZFP36L2 (human) (UniProt P47974)", "T1 sequence": "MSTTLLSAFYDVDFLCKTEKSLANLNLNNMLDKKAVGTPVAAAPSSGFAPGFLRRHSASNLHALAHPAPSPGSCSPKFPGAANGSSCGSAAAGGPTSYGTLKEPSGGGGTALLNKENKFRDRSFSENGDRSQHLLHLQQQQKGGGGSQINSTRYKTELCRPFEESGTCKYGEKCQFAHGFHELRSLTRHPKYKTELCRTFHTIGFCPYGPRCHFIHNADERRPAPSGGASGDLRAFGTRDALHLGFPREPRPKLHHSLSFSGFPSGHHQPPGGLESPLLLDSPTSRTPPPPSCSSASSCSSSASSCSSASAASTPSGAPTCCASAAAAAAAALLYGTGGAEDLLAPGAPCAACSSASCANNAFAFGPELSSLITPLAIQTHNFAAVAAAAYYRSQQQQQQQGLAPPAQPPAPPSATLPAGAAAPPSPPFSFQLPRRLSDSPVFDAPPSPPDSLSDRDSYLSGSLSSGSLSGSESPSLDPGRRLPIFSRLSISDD", "experiment": "co-IP; Supplementary Figure S5E, legend not shown; ZFP36 or ZFP36L2 and CNOT7, cells without PMA"}, "[1]": {"biological_target": "T2, ZFP36L1-SASA mutant (human) (UniProt Q07352)", "T2 sequence": "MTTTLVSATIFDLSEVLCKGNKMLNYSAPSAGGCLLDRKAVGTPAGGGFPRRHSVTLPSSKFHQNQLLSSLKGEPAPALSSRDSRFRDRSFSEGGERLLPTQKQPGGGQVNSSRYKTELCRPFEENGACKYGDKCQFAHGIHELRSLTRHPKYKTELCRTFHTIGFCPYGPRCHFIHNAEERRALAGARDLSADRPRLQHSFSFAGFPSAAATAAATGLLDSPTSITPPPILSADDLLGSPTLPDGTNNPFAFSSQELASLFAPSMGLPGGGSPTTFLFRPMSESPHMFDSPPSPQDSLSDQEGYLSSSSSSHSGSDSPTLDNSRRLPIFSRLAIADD", "experiment": "co-IP; as a1, but cells treated with PMA (100 ng/ml, 30 min) before lysis; ZFP36L1 wild type, SASA and ΔC constructs"}}, "note": "No constants are given. Whether binding was seen depends on the method and setting. Binding seen in cells or lysates may run through a third protein. Some binding calls cover weakened binding; strength is not graded here."}
{"substance": "CNOT7 (from UniProt Q9UIV1 1-285)", "values": [{"measurement": "binding", "setting": "ZFP36L2 (human)", "value": "binds"}, {"measurement": "binding", "setting": "[1]", "value": "binds"}]}
